These are yes or no findings as the source states them, for the method shown. In cells and extracts the contact can be indirect. Some binding calls cover weakened binding; strength is not graded here. Tags and fused reporters may be left off the sequences shown.
Biological target: GFP-tagged IRBIT (IP3 receptor-binding protein released with IP3) (UniProt O43865)
Experiment: co-IP; HEK293T cells transfected with HA-NBCn1 and GFP-IRBIT; lysate (20 mM Tris, 150 mM NaCl, 2 mM EDTA, 1% Triton X-100) immunoprecipitated with GFP antibody at 4 °C for 16 h, protein G agarose beads, blotted with NBCn1 antibody

Amino acid sequences for entries named in this document (tags omitted).
UniProt O43865: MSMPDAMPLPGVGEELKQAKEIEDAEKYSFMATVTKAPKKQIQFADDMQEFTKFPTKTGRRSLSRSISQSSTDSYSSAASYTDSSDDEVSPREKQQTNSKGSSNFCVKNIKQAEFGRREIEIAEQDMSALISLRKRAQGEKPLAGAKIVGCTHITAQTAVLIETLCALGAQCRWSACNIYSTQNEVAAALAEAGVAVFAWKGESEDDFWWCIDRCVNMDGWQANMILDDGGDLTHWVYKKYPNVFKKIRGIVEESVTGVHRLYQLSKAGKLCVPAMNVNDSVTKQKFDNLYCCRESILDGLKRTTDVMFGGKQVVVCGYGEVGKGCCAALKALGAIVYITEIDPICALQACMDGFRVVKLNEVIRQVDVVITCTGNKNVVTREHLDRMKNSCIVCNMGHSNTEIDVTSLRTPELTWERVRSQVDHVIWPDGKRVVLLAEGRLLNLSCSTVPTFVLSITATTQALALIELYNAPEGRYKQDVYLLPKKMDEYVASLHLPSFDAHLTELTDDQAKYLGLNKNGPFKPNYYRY

B1: HA-tagged NBCn1 (electroneutral sodium bicarbonate cotransporter 1) (protein, UniProt Q9Y6M7 1-1214)
chain: MERFRLEKKLPGPDEEAVVDLGKTSSTVNTKFEKEELESHRAVYIGVHVPFSKESRRRHRHRGHKHHHRRRKDKESDKEDGRESPSYDTPSQRVQFILGTEDDDEEHIPHDLFTEMDELCYRDGEEYEWKETARWLKFEEDVEDGGDRWSKPYVATLSLHSLFELRSCILNGTVMLDMRASTLDEIADMVLDNMIASGQLDESIRENVREALLKRHHHQNEKRFTSRIPLVRSFADIGKKHSDPHLLERNGEGLSASRHSLRTGLSASNLSLRGESPLSLLLGHLLPSSRAGTPAGSRCTTPVPTPQNSPPSSPSISRLTSRSSQESQRQAPELLVSPASDDIPTVVIHPPEEDLEAALKGEEQKNEENVDLTPGILASPQSAPGNLDNSKSGEIKGNGSGGSRENSTVDFSKVDMNFMRKIPTGAEASNVLVGEVDFLERPIIAFVRLAPAVLLTGLTEVPVPTRFLFLLLGPAGKAPQYHEIGRSIATLMTDEIFHDVAYKAKDRNDLLSGIDEFLDQVTVLPPGEWDPSIRIEPPKSVPSQEKRKIPVFHNGSTPTLGETPKEAAHHAGPELQRTGRLFGGLILDIKRKAPFFLSDFKDALSLQCLASILFLYCACMSPVITFGGLLGEATEGRISAIESLFGASLTGIAYSLFAGQPLTILGSTGPVLVFEKILYKFCRDYQLSYLSLRTSIGLWTSFLCIVLVATDASSLVCYITRFTEEAFAALICIIFIYEALEKLFDLGETYAFNMHNNLDKLTSYSCVCTEPPNPSNETLAQWKKDNITAHNISWRNLTVSECKKLRGVFLGSACGHHGPYIPDVLFWCVILFFTTFFLSSFLKQFKTKRYFPTKVRSTISDFAVFLTIVIMVTIDYLVGVPSPKLHVPEKFEPTHPERGWIISPLGDNPWWTLLIAAIPALLCTILIFMDQQITAVIINRKEHKLKKGAGYHLDLLMVGVMLGVCSVMGLPWFVAATVLSISHVNSLKVESECSAPGEQPKFLGIREQRVTGLMIFILMGLSVFMTSVLKFIPMPVLYGVFLYMGVSSLKGIQLFDRIKLFGMPAKHQPDLIYLRYVPLWKVHIFTVIQLTCLVLLWVIKVSAAAVVFPMMVLALVFVRKLMDLCFTKRELSWLDDLMPESKKKKEDDKKKKEKEEAERMLQDDDDTVHLPFEGGSLLQIPVKALKYSPDKPVSVKISFEDEPRKKYVDAETSL
  binding: binds

From paper PMC7558343
